The other results are listed elsewhere or left out.

Amino acid sequences for entries named in this document (tags omitted).
UniProt Q0JBA9, entry or part of it: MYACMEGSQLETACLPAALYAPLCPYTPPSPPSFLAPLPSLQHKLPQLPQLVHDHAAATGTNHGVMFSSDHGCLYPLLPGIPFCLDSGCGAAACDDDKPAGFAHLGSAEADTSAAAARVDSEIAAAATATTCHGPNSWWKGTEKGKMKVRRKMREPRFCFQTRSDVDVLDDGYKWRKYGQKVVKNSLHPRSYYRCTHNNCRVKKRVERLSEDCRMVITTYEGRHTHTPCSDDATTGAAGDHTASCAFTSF

For the assay, the target named is OsWRKY34 (Oryza sativa, UniProt Q0JBA9 1-250). Kind of assay: protein-binding microarray (RPBM); PBS, 2% BSA, 51.3 ng/ul salmon testes DNA, 50 uM zinc acetate, 200 nM TF, 25 C, 1 h; high values mean tight binding. Particulars: protein: recombinant; tags: N-terminal polyhistidine and DsRed monomer fusion (pET32a); label: CyDye5-dUTP incorporated in the synthesized complementary strand; 3' TTTTT single-stranded linker to array surface; dsDNA, one strand shown. Put shortly:
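Binding signal is defined as the fluorescence intensity of each feature in arbitrary units, read on an Axon 4000B scanner. Transcription factors with N-terminal polyhistidine and DsRed fusions came from E. coli BL21-CodonPlus and were purified on Ni–NTA. They were incubated at 200 nM for 1 h at 25 °C on a custom Agilent array that had been made double-stranded with Cy5-dUTP, with 50 µM zinc acetate present, and the array was washed.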
In the case of “TGCCGATTCTTTTTTTTCCTCTCAAACACGATCGTGGATGCGGAGTCACCTAGTGCAG”, the binding signal was 9100 fluorescence intensity (a.u.).
The value for “TTGCACTATATATTTTCCCATTGACATTCGTTGTAGCCGTCGGAGTCACCTAGTGCAG” was 9030 fluorescence intensity (a.u.); that for “TAATCCCTATATATGCTTCCTTCCATTCACGTTCGATTCTCGGAGTCACCTAGTGCAG” was 8960 fluorescence intensity (a.u.); that for “CGCCGCTGCAAACCTCCGTCTCCTCCGGCTCCGGCTGCTCCGGAGTCACCTAGTGCAG” was 8880 fluorescence intensity (a.u.).
Take “GATCCATACGTTTTCTAAGTTAGTAAATGTGCAATTTTTTCGGAGTCACCTAGTGCAG”: the binding signal was 8290 fluorescence intensity (a.u.).
The same measure for “GTTGGTTTTGGGGTTTTGGAGCGTTGCGGATTGCCACGGCCGGAGTCACCTAGTGCAG”: 10300 fluorescence intensity (a.u.).
“TCCCAACCCACCGTTCCATTCTCTCGAGCTCACCCCGTCACGGAGTCACCTAGTGCAG”: the binding signal is 10500 fluorescence intensity (a.u.).
The value for “AAAATTTTCTTGTGTTTTGCAATACTCTGTTTTACACATACGGAGTCACCTAGTGCAG” was 9280 fluorescence intensity (a.u.); that for “TTGTTTTAACCTGGCCGTGCCTGTGTGAGTCCTGGTTATTCGGAGTCACCTAGTGCAG” was 9160 fluorescence intensity (a.u.).
The same measure for “GTTCGGTTGTACCTTATTTTTTTCTTGGCTCTTGTTGTCCCGGAGTCACCTAGTGCAG”: 12400 fluorescence intensity (a.u.).
In the case of “TCTCATGCTTGTTCTGGGGATCTGCTGGTGGGTTTGGAGTCGGAGTCACCTAGTGCAG”, the binding signal was 10700 fluorescence intensity (a.u.).
The value for “GCGCGGATCCATCTCCTAGCTAGCGCACCATCTATGGATCCGGAGTCACCTAGTGCAG” was 8450 fluorescence intensity (a.u.); that for “CAATTGCGTCTCCTTCGTATAGTAGTTTAGTCGGGTTAGTCGGAGTCACCTAGTGCAG” was 9730 fluorescence intensity (a.u.); that for “CCTTAATTCCGCACCTCGACCTTATCCTTTCCCACTTTCCCGGAGTCACCTAGTGCAG” was 11100 fluorescence intensity (a.u.).
On to “GCCCCATTGCCTGGCGCTGTTTTTGCCACCGACCTGCTTTCGGAGTCACCTAGTGCAG”, for which the binding signal was 8700 fluorescence intensity (a.u.).
For “GGGGTGGACTGGGGTGTTTGGCTGCGTGAGTGCGGAGCGGCGGAGTCACCTAGTGCAG”, the binding signal was 8920 fluorescence intensity (a.u.).
As for “AAATGTGAATGATGTTTATTTTGTCTAGTTTTACTGTTAACGGAGTCACCTAGTGCAG”, the binding signal was 8510 fluorescence intensity (a.u.).
The same measure for “AAACATCTCACACCACAACTCCACCACCACTCCTTCCAAGCGGAGTCACCTAGTGCAG”: 8740 fluorescence intensity (a.u.); for “CCGTTGACCACAAACGAACACAAGATCCATGCATCCGGGCCGGAGTCACCTAGTGCAG”: 8050 fluorescence intensity (a.u.).
The value for “TATCCTTCTCGTCTTCTCGTTAATTTTTCCGGCAGCAACGCGGAGTCACCTAGTGCAG” was 9730 fluorescence intensity (a.u.); that for “GACCGCAGTTTCGCTGCTTTCGTCGTCTTCCTCACCGTTCCGGAGTCACCTAGTGCAG” was 12000 fluorescence intensity (a.u.).
The value for “CATTGGACTGCATATTAATTTGAGTATTCTGTTTCTCATTCGGAGTCACCTAGTGCAG” was 9190 fluorescence intensity (a.u.).
For “CTCCTCTGTCCCAGCTCAAGCTTTCGTCTTCGTCTTCGCCCGGAGTCACCTAGTGCAG”, the binding signal is 9050 fluorescence intensity (a.u.).
The value for “CCTTTGCTCTATCTCGTTTTTCTGCATCTGCAGCATCTCACGGAGTCACCTAGTGCAG” was 15400 fluorescence intensity (a.u.); that for “CATTACCGACTGACTACTAAATTTCGAGTCCTATTGATATCGGAGTCACCTAGTGCAG” was 9460 fluorescence intensity (a.u.).
The same measure for “TGTTCACCTCTCCGGCGACGAGATGGTCCCAACCTGCAGCCGGAGTCACCTAGTGCAG”: 8190 fluorescence intensity (a.u.); for “CCCACCACCGCAACACCATCACCAACCAGCCTTTTTTTCTCGGAGTCACCTAGTGCAG”: 10200 fluorescence intensity (a.u.); for “CATAAAAAATCTAACGTCCGCTTTTTTTTTATTTTTTCCTCGGAGTCACCTAGTGCAG”: 8540 fluorescence intensity (a.u.).
“GGGACATGTTATATATGGTTTTCCGGTTGAAGGACGAAAACGGAGTCACCTAGTGCAG”: the binding signal is 8160 fluorescence intensity (a.u.).
Turning to “TGCACACTGGCCAGCCATACTTGTGCAGTTGTGCCCACAACGGAGTCACCTAGTGCAG”, the binding signal was 9220 fluorescence intensity (a.u.).
The value for “CTCCGTTTGTAAATATTTGACGCCGTTGACTTTTTAAAATCGGAGTCACCTAGTGCAG” was 22700 fluorescence intensity (a.u.); that for “TCTTGTTTCTGCAGTTGTCCAACTGGTCTTCTCATGGCCGCGGAGTCACCTAGTGCAG” was 8360 fluorescence intensity (a.u.); that for “TCAGCAGACACACACCCAGCTTCATCAATCCACCCACCTCCGGAGTCACCTAGTGCAG” was 9180 fluorescence intensity (a.u.).
The value for “ACAAGTTGCTATATTTTTTTTTCGTGTGGGGATGTGAGGACGGAGTCACCTAGTGCAG” was 10100 fluorescence intensity (a.u.).
The same measure for “GAGGGAGAGAATAAAGAGAAGTGGGGTCTTGAGGAGGAAGCGGAGTCACCTAGTGCAG”: 8560 fluorescence intensity (a.u.); for “GCCCACGTCCTTTTGACCTGCTGCGCGTAGAAGTGACGCACGGAGTCACCTAGTGCAG”: 10100 fluorescence intensity (a.u.); for “GCCCACCGGCCCATTTATTTTTCCTACGATTTTCTAATTTCGGAGTCACCTAGTGCAG”: 8170 fluorescence intensity (a.u.).
Regarding “GACGAGCACACGCTTCCTCTCCATCTCTGCTTCTGCTCTCCGGAGTCACCTAGTGCAG”, the binding signal is 11300 fluorescence intensity (a.u.).
The same measure for “CCTCTCCAATGATTCTTTGCTCTTTTTTTTTCTCTCATTCCGGAGTCACCTAGTGCAG”: 10300 fluorescence intensity (a.u.).
The same measure for “CGTGCACTCACTTGTCGTCAGTTTACACATACGTTCAGCACGGAGTCACCTAGTGCAG”: 9260 fluorescence intensity (a.u.); for “TAAATCACTCACGGAAGTTTGTCGCTATTCTTCTAGTCAACGGAGTCACCTAGTGCAG”: 9330 fluorescence intensity (a.u.); for “GCCCAGCCCAGCCCGCTCTTCGTTTCCTCTCTAGTGACTTCGGAGTCACCTAGTGCAG”: 9510 fluorescence intensity (a.u.).

The values are drawn from publication PMC7819943, “Rice protein-binding microarrays: a tool to detect cis-acting elements near promoter regions in rice”.
